Reference: PMC2991253
These are yes or no findings as the source states them, for the method shown. Binding seen in cells or lysates may run through a third protein. Some results given as binding are weak or reduced against the parent protein; the word gives no strength.

Chains of the proteins cited; added tags and fusions are not shown. Residues count along the entry.
UniProt Q02846, residues 52-1103: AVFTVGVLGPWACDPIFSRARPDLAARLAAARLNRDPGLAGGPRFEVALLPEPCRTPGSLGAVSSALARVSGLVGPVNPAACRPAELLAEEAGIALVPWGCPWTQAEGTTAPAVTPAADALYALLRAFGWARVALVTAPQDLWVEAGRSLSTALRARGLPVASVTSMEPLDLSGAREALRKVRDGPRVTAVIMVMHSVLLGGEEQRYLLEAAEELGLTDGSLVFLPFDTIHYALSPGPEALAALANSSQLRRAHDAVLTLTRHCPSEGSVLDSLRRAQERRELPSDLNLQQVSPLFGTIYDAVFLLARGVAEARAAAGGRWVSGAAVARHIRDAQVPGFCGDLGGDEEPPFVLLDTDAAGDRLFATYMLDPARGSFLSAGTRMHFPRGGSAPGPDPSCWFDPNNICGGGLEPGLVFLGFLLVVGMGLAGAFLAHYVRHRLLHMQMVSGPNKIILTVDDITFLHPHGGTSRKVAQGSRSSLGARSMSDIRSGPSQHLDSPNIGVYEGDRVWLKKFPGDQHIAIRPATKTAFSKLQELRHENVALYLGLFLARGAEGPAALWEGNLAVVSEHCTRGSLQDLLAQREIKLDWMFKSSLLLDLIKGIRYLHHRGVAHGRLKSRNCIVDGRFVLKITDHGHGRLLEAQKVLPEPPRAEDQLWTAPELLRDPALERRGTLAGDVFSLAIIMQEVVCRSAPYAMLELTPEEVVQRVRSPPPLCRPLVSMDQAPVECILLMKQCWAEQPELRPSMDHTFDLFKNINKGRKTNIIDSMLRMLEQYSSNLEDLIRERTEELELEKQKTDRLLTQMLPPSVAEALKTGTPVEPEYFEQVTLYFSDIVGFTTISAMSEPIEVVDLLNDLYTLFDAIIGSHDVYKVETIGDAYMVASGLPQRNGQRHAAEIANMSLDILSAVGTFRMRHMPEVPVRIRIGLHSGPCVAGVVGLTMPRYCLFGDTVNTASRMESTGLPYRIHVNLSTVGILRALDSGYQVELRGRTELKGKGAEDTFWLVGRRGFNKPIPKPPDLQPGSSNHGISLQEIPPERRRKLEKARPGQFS

Target: T1, Ankmy2-1D4 (mouse Ankmy2 with the rhodopsin 1D4 epitope) (mouse) (UniProt Q3TPE9)
T1 sequence: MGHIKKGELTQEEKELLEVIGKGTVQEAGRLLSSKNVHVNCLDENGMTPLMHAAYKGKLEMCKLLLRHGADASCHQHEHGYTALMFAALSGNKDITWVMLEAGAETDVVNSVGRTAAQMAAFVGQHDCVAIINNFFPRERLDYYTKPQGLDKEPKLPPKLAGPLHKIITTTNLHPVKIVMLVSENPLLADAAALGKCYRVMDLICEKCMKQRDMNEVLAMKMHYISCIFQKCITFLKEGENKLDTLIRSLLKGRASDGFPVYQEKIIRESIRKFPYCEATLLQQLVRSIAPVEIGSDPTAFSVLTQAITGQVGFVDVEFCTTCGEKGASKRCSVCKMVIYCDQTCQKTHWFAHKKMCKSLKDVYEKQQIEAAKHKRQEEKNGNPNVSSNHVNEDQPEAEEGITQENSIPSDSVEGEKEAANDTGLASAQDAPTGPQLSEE
Assay: co-IP; HEK293 cells co-expressing Ankmy2-1D4 and GC1 or ABCA4; extract solubilized in 18 mM CHAPS in TBS (20 mM Tris, 150 mM NaCl, 1 mM EDTA, 1 mM MgCl2); Rho 1D4 antibody-Sepharose 2B, 4°C, one hour; eluted with 0.2 mg/ml 1D4 peptide; Western blot

Question: How did the binding turn out when “guanylate cyclase 1 (GC1), retinal guanylyl cyclase (from UniProt Q02846 52-1103) (enzyme)” was run?
Answer: Its binding is “binds”.
